Reference: paper PMC9707739
No constants are given. Whether binding was seen depends on the method and setting. In cells and extracts the contact can be indirect. Some entries that bind do so weakly or less than the wild type. Tags and fused reporters may be left off the sequences shown.

Sequences of proteins named here, by UniProt entry; tags and fusion partners are left off.
UniProt P28159: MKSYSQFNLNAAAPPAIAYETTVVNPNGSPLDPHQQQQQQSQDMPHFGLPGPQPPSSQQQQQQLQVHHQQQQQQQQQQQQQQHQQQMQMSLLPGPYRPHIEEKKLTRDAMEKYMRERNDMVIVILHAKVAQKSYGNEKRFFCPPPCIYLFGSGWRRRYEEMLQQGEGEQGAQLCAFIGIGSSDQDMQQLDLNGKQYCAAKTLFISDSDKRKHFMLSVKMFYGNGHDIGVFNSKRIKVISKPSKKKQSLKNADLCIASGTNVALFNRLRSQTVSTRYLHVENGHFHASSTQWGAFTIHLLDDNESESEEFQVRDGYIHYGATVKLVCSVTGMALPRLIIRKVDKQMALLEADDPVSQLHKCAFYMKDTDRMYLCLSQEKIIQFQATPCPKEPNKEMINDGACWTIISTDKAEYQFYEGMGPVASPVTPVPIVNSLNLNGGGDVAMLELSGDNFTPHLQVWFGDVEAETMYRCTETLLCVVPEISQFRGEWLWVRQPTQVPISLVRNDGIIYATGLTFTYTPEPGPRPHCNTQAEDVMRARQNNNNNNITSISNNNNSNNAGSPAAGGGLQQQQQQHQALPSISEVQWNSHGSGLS

Target: T1, GST::Med19 (Drosophila) (UniProt Q9VVL6)
T1 sequence: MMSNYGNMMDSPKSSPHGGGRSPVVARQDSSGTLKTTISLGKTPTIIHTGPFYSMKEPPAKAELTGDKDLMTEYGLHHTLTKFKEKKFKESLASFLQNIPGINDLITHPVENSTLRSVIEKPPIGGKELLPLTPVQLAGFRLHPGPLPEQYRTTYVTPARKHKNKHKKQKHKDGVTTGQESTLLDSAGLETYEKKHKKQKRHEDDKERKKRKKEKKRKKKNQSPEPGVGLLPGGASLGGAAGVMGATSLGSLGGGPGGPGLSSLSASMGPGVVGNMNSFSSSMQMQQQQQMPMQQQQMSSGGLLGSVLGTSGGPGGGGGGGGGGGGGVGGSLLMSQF
Experiment: pull-down; GST or GST::Med19 on glutathione-Sepharose beads; in vitro translated Su(H)-HA as prey; Western blot with anti-HA; input 5% of the starting material; only the target purified

- binding: binds
Substance: C-terminally HA tagged Su(H) (from UniProt P28159 1-594)
